The values that follow come from PMC6393520.

This assay addresses T1, FLAG-ISL1 (Insulin gene enhancer binding protein 1) (UniProt P61371).
T1 sequence: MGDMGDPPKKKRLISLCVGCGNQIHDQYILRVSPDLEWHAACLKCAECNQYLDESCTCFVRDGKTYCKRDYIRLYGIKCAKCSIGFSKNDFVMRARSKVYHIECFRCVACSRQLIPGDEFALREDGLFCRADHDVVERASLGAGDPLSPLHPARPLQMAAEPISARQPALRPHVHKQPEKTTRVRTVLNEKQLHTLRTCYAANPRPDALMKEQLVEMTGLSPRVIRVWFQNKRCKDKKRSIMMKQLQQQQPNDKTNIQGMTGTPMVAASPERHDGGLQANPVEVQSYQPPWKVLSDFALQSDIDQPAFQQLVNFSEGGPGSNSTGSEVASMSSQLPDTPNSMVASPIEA
Put plainly: affinity purification with mass spectrometry; lysate of HEK 293FT cells transfected with pcDNA3.0-FLAG-ISL1 (48 h) applied to ANTI-FLAG M2 Affinity Gel, washed, eluted with FLAG peptides, LC-MS/MS.

Results are given in words; binding and its absence hold for the method and conditions named. Binding seen in cells or lysates may run through a third protein. Here binding means that the protein was enriched with, or labelled near, the bait; the list need not be complete. Tags and fused reporters may be left off the sequences shown.

B1: SETD7 (protein, UniProt Q8WTS6 1-366)
chain: MDSDDEMVEEAVEGHLDDDGLPHGFCTVTYSSTDRFEGNFVHGEKNGRGKFFFFDGSTLEGYYVDDALQGQGVYTYEDGGVLQGTYVDGELNGPAQEYDTDGRLIFKGQYKDNIRHGVCWIYYPDGGSLVGEVNEDGEMTGEKIAYVYPDERTALYGKFIDGEMIEGKLATLMSTEEGRPHFELMPGNSVYHFDKSTSSCISTNALLPDPYESERVYVAESLISSAGEGLFSKVAVGPNTVMSFYNGVRITHQEVDSRDWALNGNTLSLDEETVIDVPEPYNHVSKYCASLGHKANHSFTPNCIYDMFVHPRFGPIKCIRTLRAVEADEELTVAYGYDHSPPGKSGPEAPEWYQVELKAFQATQQK
On to B1, for which the binding result is recorded as “binds”.
